# PubChem BioAssay AID445 (National Center for Advancing Translational Sciences (NCATS), 2006)
# This is one part of the list. Shown are side measurements of this screen, not its main read-out; they come without a call. The list favours compounds with an active or inconclusive main result. The note in brackets gives the kind of curve behind each potency; many fits are weak.
# Assay: IkB Signaling
# Settings: ABC-DLBCL IkBa-CBG/CBR dual luciferase ratio (green luciferase fused to IkBa over red control in OCI-Ly3 lymphoma cells), 4 h
# Method in brief: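 Curves were fitted separately to fusion (green), unfused (red) and ratio luminescence, then classed by r2, magnitude and activity. Cells: OCI-Ly3, 4 h compound plus doxycycline at 37C; 10 uM MG-132 defined full response.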
# [1] = measured here: control luc red channel unless noted
smiles,measurement,setting,value
O=C(COc1ccccc1Cl)Nc1nnc(S(=O)(=O)N2CCCCCC2)s1,AC50,[1],"0.0398 µM [rising, full curve, poor fit]"
CCOC(=O)COc1ccccc1C1C(C(=O)OC)=C(C)NC2=C1C(=O)c1ccccc12 (centres undefined),AC50,[1],"39.8 µM [falling, single point]"
COc1cc(NC(=O)CCc2c(C)nc3cc(-c4ccccc4)nn3c2C)cc(OC)c1OC,AC50,[1],"7.94 µM [falling, partial curve]"
COc1ccccc1N(CC(=O)Nc1ccc2c(c1)OCO2)S(=O)(=O)c1ccccc1,AC50,[1],"12.6 µM [falling, partial curve]"
Cc1ccc2c(c1)c(=O)c(C(=O)c1ccc3c(c1)OCO3)cn2Cc1ccc(Cl)cc1,AC50,[1],"20 µM [falling, partial curve]"
CSc1ccc(/C=C/c2nc3ccccc3n2S(=O)(=O)c2cccc(Cl)c2)cc1,AC50,[1],"0.02 µM [falling, full curve]"
CCC(CC)C(=O)Nc1nnc(SCc2cc(=O)n3cccc(C)c3n2)s1,AC50,[1],"39.8 µM [falling, single point]"
Cc1oc2ncnc(N3CCCCC3)c2c1C(=O)N1CCN(c2cccc(Cl)c2)CC1,AC50,[1],"39.8 µM [falling, single point]"
CCCN1C(=O)C2(c3ccccc31)c1c(oc3ccc(F)cc3c1=O)C(=O)N2CCCOC(C)C (centres undefined),AC50,[1],"25.1 µM [falling, partial curve]"
CC(C)(C)n1nnnc1C(c1cccs1)N1CCCc2ccccc21 (centres undefined),AC50,[1],"20 µM [falling, partial curve]"
CCc1nonc1NC(=O)c1oc2ccc(Br)cc2c1C,AC50,[1],"0.631 µM [rising, full curve]"
NC(=O)c1c(NC(=O)CSc2nnc(-c3ccco3)n2-c2ccccc2)sc2c1CCC2,AC50,[1],"15.8 µM [falling, partial curve]"
CCOc1ccccc1N1CCN(c2nc(N)c(C#N)c(CC#N)c2C#N)CC1,AC50,[1],"25.1 µM [falling, single point]"
Cc1ccc(NC(=O)C2CCCN(S(=O)(=O)c3cccc4cccnc34)C2)cc1 (centres undefined),AC50,[1],"39.8 µM [falling, single point]"
O=C(/C=C/Nc1ccccc1Br)c1ccccn1,AC50,[1],"15.8 µM [falling, partial curve]"
Cc1ccc(Cl)cc1NC(=O)c1oc2ccc(S(=O)(=O)N3CCCCC3)cc2c1C,AC50,[1],"0.398 µM [rising, full curve]"
CCOC(=O)N1CCC(Nc2c(N3CCN(c4cc(Cl)ccc4C)CC3)c(=O)c2=O)CC1,AC50,[1],"15.8 µM [falling, partial curve]"
Cc1nn(C(C)C(=O)N2CCN(c3ccc(Cl)cc3)CC2)c(=O)c2cc3occc3n12 (centres undefined),AC50,[1],"15.8 µM [falling, partial curve]"
Cc1ccc(S(=O)(=O)N2CCC(C(=O)Nc3ccc(C)c(Cl)c3)CC2)cc1,AC50,[1],"3.16 µM [falling, full curve]"
COc1ccc(CCNC(=O)C(=O)NCC(c2cccs2)S(=O)(=O)c2ccc(C)cc2)cc1 (centres undefined),AC50,[1],"39.8 µM [falling, partial curve, poor fit]"
CCOC(=O)c1c(C)[nH]c(C)c1S(=O)(=O)N1CCN(c2cccc(C(F)(F)F)c2)CC1,AC50,[1],"25.1 µM [falling, single point]"
COc1ccc(C(=O)Nc2cccc(C)c2)cc1,AC50,[1],"10 µM [falling, partial curve]"
Cc1ccnc(-n2sc3ccccc3c2=O)n1,AC50,[1],"12.6 µM [falling, partial curve]"
COc1ccc(CNC(=O)CCCn2nc(C)c3c(C)n(-c4ccccc4)nc3c2=O)cc1,AC50,[1],"20 µM [falling, single point]"
COc1ccc(OC)c(NS(=O)(=O)c2ccc(-c3cc(C)no3)s2)c1,AC50,measured here: IkB-luc green channel,"15.8 µM [rising, partial curve]"
same,AC50,measured here: control luc red channel,"5.01 µM [rising, partial curve]"
CCn1cc2nc(SCc3cccc(Cl)c3)n(Cc3ccc(C)cc3)c(=O)c2n1,AC50,[1],"25.1 µM [falling, single point]"
O=C(O)C1CC(=O)N(c2ccc(OCc3ccccc3Cl)cc2)C1 (centres undefined),AC50,[1],"6.31 µM [falling, partial curve]"
CC(C)c1cnc2c(c1SCC(=O)Nc1cccc(F)c1)c(=O)n(C)c(=O)n2C,AC50,[1],"31.6 µM [falling, single point]"
O=C(Nc1cccc(F)c1)C1CCN(S(=O)(=O)c2cccc3nsnc23)CC1,AC50,[1],"39.8 µM [falling, single point]"
COc1cc2c(cc1OC)CN(c1ccc(-c3ccccc3OC)nn1)CC2,AC50,[1],"12.6 µM [falling, partial curve]"
CN=c1scc(C)n1/N=C/c1ccc2c(c1)OCO2,AC50,[1],"25.1 µM [falling, single point]"
CCCN(CCC)S(=O)(=O)c1ccc(C(=O)Nc2sc3c(c2C(=O)OC)CCN(CC)C3)cc1,AC50,[1],"31.6 µM [falling, partial curve]"
O=C(CN1CCSc2ccccc21)N1CCN(c2ccc(F)cc2)CC1,AC50,[1],"31.6 µM [falling, partial curve, poor fit]"
CCCN(Cc1cccs1)C(=O)Nc1cc(OC)ccc1OC,AC50,[1],"15.8 µM [falling, single point]"
O=C(Nc1ccccc1F)c1cc(S(=O)(=O)N2CCCCC2)cs1,AC50,[1],"20 µM [falling, partial curve]"
Cc1ccc(-n2nc3c(N4CCC(C(=O)NCc5ccccc5Cl)CC4)nnc(C)c3c2C)cc1,AC50,[1],"10 µM [falling, partial curve]"
N#CC1=C2SCN(Cc3ccco3)CN2C(=O)CC1c1cccc2ccccc12 (centres undefined),AC50,[1],"10 µM [falling, partial curve]"
Cc1ccc(-c2nn3c(C)nnc3s2)cc1NC(=O)c1ccc(-c2cccc(Cl)c2)o1,AC50,[1],"3.98 µM [falling, full curve]"
Cc1cc(=O)c2cc(C(=O)Nc3ccccc3C)ccc2[nH]1,AC50,[1],"1.26 µM [rising, partial curve]"
CCOc1cc2sc(N3CCC(C(=O)Nc4cc(C)cc(C)c4)CC3)nc2cc1Br,AC50,[1],"12.6 µM [falling, partial curve]"
COC(=O)c1ccc(CSc2nnc3ccc4ccccc4n23)cc1,AC50,[1],"31.6 µM [falling, single point]"
Cn1ncc2c(Nc3ccc4ccccc4c3)ncnc21,AC50,[1],"1 µM [rising, full curve]"
COc1ccccc1Cn1cc(C(=O)c2ccc(C)cc2)c(=O)c2cc3c(cc21)OCCO3,AC50,[1],"15.8 µM [falling, single point]"
CCn1cc2c(n1)-c1c(oc(C(=O)Nc3cccc(C(F)(F)F)c3)c1C)CC2,AC50,[1],"20 µM [falling, partial curve]"
Cc1cc(C(=O)Nc2cc(C)n(Cc3ccc(Cl)cc3)n2)no1,AC50,[1],"25.1 µM [falling, partial curve]"
c1ccc(Nc2nc(-c3cccs3)cs2)nc1,AC50,[1],"7.94 µM [falling, partial curve]"
Cc1ccc(NC(=O)C(=O)NCc2ccco2)cc1,AC50,[1],"7.94 µM [falling, partial curve]"
COc1ccccc1OCC(=O)NCC(c1ccc(Cl)cc1)N1CCOCC1 (centres undefined),AC50,[1],"25.1 µM [falling, single point]"
O=C(NCCc1ccccc1)c1noc2c1CCCCC2,AC50,[1],"7.94 µM [falling, partial curve]"
CC(C)CC(=O)NC1(C(F)(F)F)C(=O)Nc2c1c(=O)[nH]c(=O)n2-c1ccccc1 (centres undefined),AC50,[1],"0.0126 µM [rising, full curve, poor fit]"
COc1cc(C(=O)NC(c2ccc(Cl)cc2)c2cc(Cl)c3cccnc3c2O)cc(OC)c1OC (centres undefined),AC50,[1],"31.6 µM [falling, partial curve, poor fit]"
c1ccc(C2(c3ccccc3)OCC(Cn3cncn3)O2)cc1 (centres undefined),AC50,[1],"15.8 µM [falling, partial curve]"
Cn1c(=O)c2c(-c3ccccc3)n(-n3cnnc3)cc2n(C)c1=O,AC50,[1],"31.6 µM [rising, partial curve] [measured here: IkB-luc green channel]"
CCOc1ccccc1NC(=O)C(CC)n1c(C(=O)OC)cc2occc21 (centres undefined),AC50,[1],"3.16 µM [falling, single point]"
COc1cc(C2c3c(-c4ccccc4O)n[nH]c3C(=O)N2Cc2ccco2)ccc1OCC(C)C (centres undefined),AC50,[1],"25.1 µM [falling, single point]"
COc1ccc(N(C(=O)/C=C\C(=O)Nc2ccc(C)cc2)C(C(=O)NCc2ccco2)c2ccc(C)cc2)cc1 (centres undefined),AC50,[1],"25.1 µM [falling, partial curve]"
O=C(Cn1ncc2ccsc2c1=O)N1CCN(c2ccccc2F)CC1,AC50,[1],"39.8 µM [falling, single point]"
Cc1ccc2cccc(OC(=O)c3ccc4c(c3)OCCO4)c2n1,AC50,[1],"31.6 µM [rising, partial curve] [measured here: IkB-luc green channel]"
COc1ccccc1CNC(=O)CC(c1ccc(C)cc1)N1Cc2ccccc2C1=O (centres undefined),AC50,[1],"15.8 µM [falling, partial curve]"
COc1ccc(CCNC(=O)CCS(=O)(=O)c2cc(Br)cc3c2N(C(C)=O)CC3)cc1OC,AC50,[1],"0.126 µM [rising, full curve, poor fit]"
Cc1ccc(CNC(=O)C2COc3ccccc3C2)cc1 (centres undefined),AC50,[1],"2.51 µM [rising, full curve, poor fit]"
COc1ccc2c(c1)Cc1sc(NC(=O)c3cccc(C)c3)nc1-2,AC50,[1],"7.94 µM [falling, partial curve]"
Cc1ccc(OCC(=O)OC2=C(C(=O)c3ccccc3)N(C)S(=O)(=O)c3ccccc32)cc1,AC50,[1],"25.1 µM [falling, single point]"

# Two entries drawn at random from those above, as already listed:
smiles,measurement,setting,value
N#CC1=C2SCN(Cc3ccco3)CN2C(=O)CC1c1cccc2ccccc12 (centres undefined),AC50,[1],"10 µM [falling, partial curve]"
Cc1ccc(-c2nn3c(C)nnc3s2)cc1NC(=O)c1ccc(-c2cccc(Cl)c2)o1,AC50,[1],"3.98 µM [falling, full curve]"
